The other results are listed elsewhere or left out.

The chains behind the UniProt entries cited, without tags or fusion partners.
UniProt Q0JBA9, entry or part of it: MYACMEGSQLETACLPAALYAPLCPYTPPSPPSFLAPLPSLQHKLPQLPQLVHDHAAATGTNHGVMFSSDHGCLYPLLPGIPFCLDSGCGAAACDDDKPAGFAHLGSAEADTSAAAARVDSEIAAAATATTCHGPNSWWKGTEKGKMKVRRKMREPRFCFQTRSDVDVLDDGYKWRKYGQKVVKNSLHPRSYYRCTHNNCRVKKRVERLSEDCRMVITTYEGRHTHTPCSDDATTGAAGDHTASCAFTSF

The target of this assay is OsWRKY34 (Oryza sativa, UniProt Q0JBA9 1-250). Kind of assay: protein-binding microarray (RPBM); PBS, 2% BSA, 51.3 ng/ul salmon testes DNA, 50 uM zinc acetate, 200 nM TF, 25 C, 1 h; high values mean tight binding. The conditions noted are these: protein: recombinant; tags: N-terminal polyhistidine and DsRed monomer fusion (pET32a); label: CyDye5-dUTP incorporated in the synthesized complementary strand; 3' TTTTT single-stranded linker to array surface; dsDNA, one strand shown. Summed up: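 Per-feature fluorescence intensity (arbitrary units), read on an Axon 4000B scanner, is the binding signal. Transcription factors carrying an N-terminal polyhistidine tag and DsRed fusion were expressed in E. coli BL21-CodonPlus and purified on Ni–NTA. A custom Agilent array, made double-stranded by primer extension with Cy5-dUTP and blocked with 2% BSA, was incubated with 200 nM protein in PBS, 2% BSA, salmon testes DNA and 50 µM zinc acetate at 25 °C for 1 h and then washed.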
Turning to “TGTGCTTCTCCACCTGTTGTTCCATTTTCTCCTCGCTTATCGGAGTCACCTAGTGCAG”, the binding signal is 13900 fluorescence intensity (a.u.).
Under “ATACCACATGTCATCTCCGTCGACATCTTTGATTTTGCATCGGAGTCACCTAGTGCAG” stands 8140 fluorescence intensity (a.u.).
As for “TGTATCCTCCCGTGCATCGGACCTCGGTTGACAAGCAGTTCGGAGTCACCTAGTGCAG”, the binding signal is 9860 fluorescence intensity (a.u.).
Under “GCGCGGTTCACACTTCACACGCTCTTGCAAGTGATTTGCACGGAGTCACCTAGTGCAG” stands 9600 fluorescence intensity (a.u.).
Then “ATTTGCTCCACAGAATCTTCGTCTACCTGCAGTCCCGTCGCGGAGTCACCTAGTGCAG”, with 8900 fluorescence intensity (a.u.).
On to “ACCACCTTGTCCCGTGCCGTCCTCATGCGGCGCGAGCTTTCGGAGTCACCTAGTGCAG”, for which the binding signal was 10700 fluorescence intensity (a.u.).
Under “CCCGGCCTTAAGTTGTTTCTTCCCTATCAGCTCAGGTCTCCGGAGTCACCTAGTGCAG” stands 8520 fluorescence intensity (a.u.); under “GGTGGGCAGGTGTCAGAGACAAGGGGCGGACTGATTTGTACGGAGTCACCTAGTGCAG”, 12300 fluorescence intensity (a.u.).
Under “GGTGTGGTTTTATAAAATTTTTCTATATGAAAGTTGTTTACGGAGTCACCTAGTGCAG” stands 8140 fluorescence intensity (a.u.); under “TCCTAGCACCAACTCGCCACCCAATTAGGCCATTACCTTCCGGAGTCACCTAGTGCAG”, 9810 fluorescence intensity (a.u.).
With “AGCTCTACACATCGCTCTTCTTATCCAGTTAGCCATTTGTCGGAGTCACCTAGTGCAG”, the binding signal was 8700 fluorescence intensity (a.u.).
In the case of “CTTATGGCCATCTATACATGCAACTGTGTTTTCATATTATCGGAGTCACCTAGTGCAG”, the binding signal is 9690 fluorescence intensity (a.u.).
Under “ACTAAATCCTCAACCACCTCATATGTTTATGTACCATCGACGGAGTCACCTAGTGCAG” stands 9900 fluorescence intensity (a.u.).
As to “GTTTTTTTTCGTGTGTACATTTTTCCAGCTGTTAAACGGTCGGAGTCACCTAGTGCAG”, the binding signal is 8870 fluorescence intensity (a.u.).
Under “TTTTGTAATGTTGTTGCTGTCCCCTGTCCTGAGCTATTATCGGAGTCACCTAGTGCAG” stands 11800 fluorescence intensity (a.u.); under “ATCCATCTTCGTGACAGCTCCGAGCTTTCTCCTGGTTATTCGGAGTCACCTAGTGCAG”, 8940 fluorescence intensity (a.u.).
Then “TTTATTACATGTCAACTAGTTAAATGGTTAATTTTTTTTTCGGAGTCACCTAGTGCAG”, with 8580 fluorescence intensity (a.u.).
Then “ATATATTCCTTATATGCGTTCCTATTTCCTTGTTTTTATCCGGAGTCACCTAGTGCAG”, with 11300 fluorescence intensity (a.u.).
“CTACACGAGAATGTAATGTTTCTCTCTCTCTTTTTTTTTTCGGAGTCACCTAGTGCAG”: the binding signal was 8570 fluorescence intensity (a.u.).
Then “GTTTTTGACCACGGTTCATTCGTATAATTAGTTTTTGCAACGGAGTCACCTAGTGCAG”, with 10600 fluorescence intensity (a.u.); and “CATTTCAGAGAGAGAGAGGGGTAGTGGCCAGTGGGGTGTACGGAGTCACCTAGTGCAG”, with 8090 fluorescence intensity (a.u.).
Under “ATTTCGATGGGTTTTATCAAAATTCAAATTTGAATTGATACGGAGTCACCTAGTGCAG” stands 8170 fluorescence intensity (a.u.); under “AGTCGCAGTGGTTTTGGTTGGTTGGTTGATTACATTTTGACGGAGTCACCTAGTGCAG”, 20000 fluorescence intensity (a.u.); under “TCTCTTTCTCTCTCTCCTCTTCTTCCTTGGCGAGTTGTGCCGGAGTCACCTAGTGCAG”, 8080 fluorescence intensity (a.u.).
Under “CCTCTGAGTCTATCTCTCTCATTTGATTCCTATGTTTTTCCGGAGTCACCTAGTGCAG” stands 11800 fluorescence intensity (a.u.).
On to “TCCTTTGGTCATTTTGTCTCTGTGTTCCATGTGTTAAATTCGGAGTCACCTAGTGCAG”, for which the binding signal was 8390 fluorescence intensity (a.u.).
For “TACATACTTTTTTTTCCTCATATGATTACGTTCCATAAATCGGAGTCACCTAGTGCAG”, the binding signal is 9030 fluorescence intensity (a.u.).
Under “GGTGGGGTGGCGGAGGTCATGGCGGCCAAGGTCGTCACCGCGGAGTCACCTAGTGCAG” stands 8420 fluorescence intensity (a.u.).
Under “CTGATGAATCTGCAAGCACTACTCGTACGATCCAGCTCTCCGGAGTCACCTAGTGCAG” stands 8810 fluorescence intensity (a.u.); under “ATCTCTTCTTAGTTTTCTCATGCCAACTCGCCAGTTGACTCGGAGTCACCTAGTGCAG”, 8380 fluorescence intensity (a.u.).
“CATTGGCCTTGGTTAGTTAACATTACATTATTAATACACACGGAGTCACCTAGTGCAG”: the binding signal is 8760 fluorescence intensity (a.u.).
Take “TTATTCCTTGTTTCCCGATTTTTTTTTCGGACTCCATCTCCGGAGTCACCTAGTGCAG”: the binding signal is 8350 fluorescence intensity (a.u.).
In the case of “TCAACCGTATCTGACGCCTGCATTTCCTCTACCAGCCAAGCGGAGTCACCTAGTGCAG”, the binding signal is 9510 fluorescence intensity (a.u.).
Then “ATCATGTGTTCCTTTCTCAGTCCTCGGCCGTATTGCTTGTCGGAGTCACCTAGTGCAG”, with 12300 fluorescence intensity (a.u.); and “ACCCTCGGACCGGTTTTTTTACTATGCCTCAAACATGTTCCGGAGTCACCTAGTGCAG”, with 9800 fluorescence intensity (a.u.).
Then “TTCGACGTATTGCCCTCGTGCGGACCGCACCGTTTCCTTGCGGAGTCACCTAGTGCAG”, with 8780 fluorescence intensity (a.u.); and “TCGTTCGATTTCTTGGTCCATTCCTTGTCCGTAGTGTTCTCGGAGTCACCTAGTGCAG”, with 10900 fluorescence intensity (a.u.).
Then “TTGACTTTGTTTAAAGTCAAACTGCTTCAAGTTTGACTAACGGAGTCACCTAGTGCAG”, with 9550 fluorescence intensity (a.u.); and “CTCCAGGTTGGCTCACTTTTGCTTTGCTTTTTGGCTCATGCGGAGTCACCTAGTGCAG”, with 8470 fluorescence intensity (a.u.); and “AGCTTGCTGCTATCCTGCGCCATCTCCGAGTCTCGGTGTTCGGAGTCACCTAGTGCAG”, with 8990 fluorescence intensity (a.u.).
Regarding “TCTACACACACAAACTTTCAACTTTTCTGTCACATCGTTCCGGAGTCACCTAGTGCAG”, the binding signal is 9290 fluorescence intensity (a.u.).
Under “GTGTGATGATGAGTGTGGCGGCTGCGGTGTCGATGTCCTCCGGAGTCACCTAGTGCAG” stands 8030 fluorescence intensity (a.u.).
Then “GTAGCCATACCCACCTGCTGCCGATCCCCACCTGCTACCGCGGAGTCACCTAGTGCAG”, with 11000 fluorescence intensity (a.u.); and “ACAGGTATTCCTTCACATATCTTCACATCAACCTCCTCTCCGGAGTCACCTAGTGCAG”, with 8120 fluorescence intensity (a.u.); and “AATCATCGCCTCATCGGCTCCACGCTCCTCGTCTCTCTCGCGGAGTCACCTAGTGCAG”, with 9280 fluorescence intensity (a.u.).
Then “GACATGACTGGACTAACTTGGATCATATTGCTGCTAGCTACGGAGTCACCTAGTGCAG”, with 8850 fluorescence intensity (a.u.); and “GTAACTGGCCTCTTTTCTCATGGCTAAATTTCTTTGTTCTCGGAGTCACCTAGTGCAG”, with 11200 fluorescence intensity (a.u.); and “ACCTCGAGCTCCTACTCTCCCCGGTGATCTCTCGCTTCGACGGAGTCACCTAGTGCAG”, with 9510 fluorescence intensity (a.u.).
As to “TGCCTACCGCGAGGCGCGACTCATACCTCGCTCGTCTCACCGGAGTCACCTAGTGCAG”, the binding signal is 9870 fluorescence intensity (a.u.).
Then “GGGGAATGAGGCGGGGAATGGGGCACCGAGGTCGCCACAACGGAGTCACCTAGTGCAG”, with 11300 fluorescence intensity (a.u.); and “TCTACTTTGACCCTTCTTGGTGCCCCTTGCTGCAACCAACCGGAGTCACCTAGTGCAG”, with 8710 fluorescence intensity (a.u.); and “CGTGGGCACAGTGGCGTCCATCATGGCGTTGGTTGACCAGCGGAGTCACCTAGTGCAG”, with 9450 fluorescence intensity (a.u.).
Regarding “ATATACACGGTACACCATGTCGTCGCCGCAGGCCAAATCCCGGAGTCACCTAGTGCAG”, the binding signal is 8890 fluorescence intensity (a.u.).
For “ATATTGAAATTTTCTGTTGCTATCTTCTCTAGACAATATACGGAGTCACCTAGTGCAG”, the binding signal is 10900 fluorescence intensity (a.u.).

Values taken from publication PMC7819943, “Rice protein-binding microarrays: a tool to detect cis-acting elements near promoter regions in rice”.
